Laboratory results as given in patent publication US20210261642A1, “SOLUBILITY OF GLP-1 PEPTIDE” (Novo Nordisk A/S, priority 2017, published 2021).
This continues a long series; more values of the same kind are listed elsewhere.

Assay: Assay (I): Determination of Solubility (96-well plate, pH 3.0-11.0, organic solvent 0-70% w/w, UV absorption at 280 nm)
Format: physicochemical
Conditions: Method 1
Experimental: Assay (I): Determination of Solubility
96-Well Plate Preparation
96-well plates containing target peptide in a solid form were prepared in one of two ways:
Method 1 (evaporation): Addition of 100 μl stock solution of said peptide at a concentration of 4-6 mg/ml to each well of a 96-well half area plate (150 μl well size). Subsequently the solvent was evaporated by applying a vacuum until the solvent was completely removed.
Method 2 (precipitation): Addition of a certain volume of a stock solution of said peptide containing to each well of a 96-well half area plate followed by the addition of a certain volume of concentrated phosphoric acid to obtain a pH of 4.6 followed by addition of a certain volume of ethanol resulting in a final ethanol concentration of 20% v/v. Subsequently the plate was stored at 4° C. for 1 h and then centrifuged at 4,000 rpm for 20 min. Finally the supernatant was removed. The concentration of the stock solution was chosen in a way that the final amount of peptide after supernatant removal was >0.4 mg per well.
In both cases the stock solution was prepared by adding de-ionized water to a certain amount of powder of said peptide followed by a stepwise addition of small amounts of a concentrated sodium hydroxide solution until said peptide was completely in solution.
To determine solubility of a target peptide at different pH and organic solvent concentrations, two different buffer systems were used in independent experiments to cover the whole range from pH 3.0 to pH 11.0. Buffer system 1 covers pH 3.0-7.5 and buffer system 2 covers pH 7.5-11.0. For each buffer system 96 different solvent compositions were premixed in the following way: • 1. A low pH buffer (adjusted to either pH 3.0 or pH 7.5) and a high pH buffer (adjusted to either pH 7.5 or pH 11.0) were mixed at 8 different ratios to obtain values between pH 3.0 and pH 7.5 or pH 7.5 and pH 11.0, respectively. The total volume after mixing was 300 μl. • 2. 12 different amounts of organic solvent were then added to these buffers to obtain organic solvent (e.g. ethanol) concentrations between 0 and 70% w/w. • 3. Water was then added to obtain a total weight of 1.0 g of solvent in each well.
After preparing the 96 different solvent systems, 100 μl of each system was transferred to the 96-well plate containing the solid form of the target peptide (prepared as described in the section “96-well plate preparation”). The plate was then stored at a given temperature (between 5° C. and 70° C.) for a given time on a rotating shaker set to 400 rpm. At regular time intervals the plate was centrifuged (4,000 rpm for 10 min) and a 10 μl sample was taken from each well. The samples were then analysed by UV absorption at 280 nm for peptide quantification. Peptide concentration results are given as UV absorption at 280 nm of the sample subtracted UV absorption at 280 nm of a well comprising 10 μl water.
The buffers used were as follows: • Buffer system 1 (for the pH range from pH 3.0-7.5)
• Buffer system 2 (for the pH ranae from pH 7.5-11.0)
Solubility of liraglutide was determined using Assay (I) described herein. Liraglutide was prepared using Method 1 (evaporation) or Method 2 (precipitation) as described in subsection “96-well plate preparation”.

[1] = MeCN 25.5% w/w, pH 10.0, 70° C.
[2] = MeCN 25.5% w/w, pH 10.5, 70° C.
[3] = MeCN 25.5% w/w, pH 11.0, 70° C.

CCCCCCCCCCCCCCCC(=O)N[C@@H](CCC(=O)NCCCC[C@H](NC(=O)[C@H](C)NC(=O)[C@H](C)NC(=O)[C@H](CCC(N)=O)NC(=O)CNC(=O)[C@H](CCC(=O)O)NC(=O)[C@H](CC(C)C)NC(=O)[C@H](Cc1ccc(O)cc1)NC(=O)[C@H](CO)NC(=O)[C@H](CO)NC(=O)[C@@H](NC(=O)[C@H](CC(=O)O)NC(=O)[C@H](CO)NC(=O)[C@@H](NC(=O)[C@H](Cc1ccccc1)NC(=O)[C@@H](NC(=O)CNC(=O)[C@H](CCC(=O)O)NC(=O)[C@H](C)NC(=O)[C@@H](N)Cc1cnc[nH]1)[C@@H](C)O)[C@@H](C)O)C(C)C)C(=O)N[C@@H](CCC(=O)O)C(=O)N[C@@H](Cc1ccccc1)C(=O)N[C@H](C(=O)N[C@@H](C)C(=O)N[C@@H](Cc1c[nH]c2ccccc12)C(=O)N[C@@H](CC(C)C)C(=O)N[C@H](C(=O)N[C@@H](CCCNC(=N)N)C(=O)NCC(=O)N[C@@H](CCCNC(=N)N)C(=O)NCC(=O)O)C(C)C)[C@@H](C)CC)C(=O)O [liraglutide, Arg34,Lys26-(N-epsilon-(gamma-L-glutamyl(N-alfa-hexadecanoyl)))-GLP-1(7-37)]
Peptide concentration after 5 min (MeCN 25.5% w/w, pH 6.9, 70° C.): 3.8 mg/mL | Peptide concentration after 180 min (MeCN 25.5% w/w, pH 6.9, 70° C.): 3.5 mg/mL | Peptide concentration after 5 min (MeCN 25.5% w/w, pH 6.9, RT): 1.2 mg/mL | Peptide concentration after 180 min (MeCN 25.5% w/w, pH 6.9, RT): 3.5 mg/mL | Peptide concentration after 24 h (MeCN 25.5% w/w, pH 6.9, RT): 1.4 mg/mL | Peptide concentration after 5 min (MeCN 25.5% w/w, pH 7.5, 5° C.): 1.3 mg/mL | Peptide concentration after 180 min (MeCN 25.5% w/w, pH 7.5, 5° C.): 3.8 mg/mL | Peptide concentration after 24 h (MeCN 25.5% w/w, pH 7.5, 5° C.): >4.0 mg/mL | Peptide concentration after 5 min (MeCN 25.5% w/w, pH 7.5, 70° C.): >4.0 mg/mL | Peptide concentration after 180 min (MeCN 25.5% w/w, pH 7.5, 70° C.): >4.0 mg/mL | Peptide concentration after 5 min (MeCN 25.5% w/w, pH 7.5, RT): 1.4 mg/mL | Peptide concentration after 180 min (MeCN 25.5% w/w, pH 7.5, RT): >4.0 mg/mL | Peptide concentration after 24 h (MeCN 25.5% w/w, pH 7.5, RT): >4.0 mg/mL | Peptide concentration after 5 min (MeCN 25.5% w/w, pH 8.0, 70° C.): >4.0 mg/mL | Peptide concentration after 180 min (MeCN 25.5% w/w, pH 8.0, 70° C.): >4.0 mg/mL | Peptide concentration after 5 min (MeCN 25.5% w/w, pH 8.0, RT): 1.1 mg/mL | Peptide concentration after 180 min (MeCN 25.5% w/w, pH 8.0, RT): 3.9 mg/mL | Peptide concentration after 24 h (MeCN 25.5% w/w, pH 8.0, RT): >4.0 mg/mL | Peptide concentration after 5 min (MeCN 25.5% w/w, pH 8.5, 70° C.): 4.0 mg/mL | Peptide concentration after 180 min (MeCN 25.5% w/w, pH 8.5, 70° C.): >4.0 mg/mL | Peptide concentration after 5 min (MeCN 25.5% w/w, pH 8.5, RT): 1.0 mg/mL | Peptide concentration after 180 min (MeCN 25.5% w/w, pH 8.5, RT): >4.0 mg/mL | Peptide concentration after 24 h (MeCN 25.5% w/w, pH 8.5, RT): >4.0 mg/mL | Peptide concentration after 5 min (MeCN 25.5% w/w, pH 9.0, 70° C.): 3.7 mg/mL | Peptide concentration after 180 min (MeCN 25.5% w/w, pH 9.0, 70° C.): >4.0 mg/mL | Peptide concentration after 5 min (MeCN 25.5% w/w, pH 9.0, RT): 0.5 mg/mL | Peptide concentration after 180 min (MeCN 25.5% w/w, pH 9.0, RT): 3.5 mg/mL | Peptide concentration after 24 h (MeCN 25.5% w/w, pH 9.0, RT): >4.0 mg/mL | Peptide concentration after 5 min (MeCN 25.5% w/w, pH 9.5, 70° C.): >4.0 mg/mL | Peptide concentration after 180 min (MeCN 25.5% w/w, pH 9.5, 70° C.): >4.0 mg/mL | Peptide concentration after 5 min (MeCN 25.5% w/w, pH 9.5, RT): 1.5 mg/mL | Peptide concentration after 180 min (MeCN 25.5% w/w, pH 9.5, RT): >4.0 mg/mL | Peptide concentration after 24 h (MeCN 25.5% w/w, pH 9.5, RT): >4.0 mg/mL | Peptide concentration after 5 min [1]: >4.0 mg/mL | Peptide concentration after 180 min [1]: >4.0 mg/mL | Peptide concentration after 5 min (MeCN 25.5% w/w, pH 10.0, RT): 1.6 mg/mL | Peptide concentration after 180 min (MeCN 25.5% w/w, pH 10.0, RT): >4.0 mg/mL | Peptide concentration after 24 h (MeCN 25.5% w/w, pH 10.0, RT): >4.0 mg/mL | Peptide concentration after 5 min [2]: >4.0 mg/mL | Peptide concentration after 180 min [2]: >4.0 mg/mL | Peptide concentration after 5 min (MeCN 25.5% w/w, pH 10.5, RT): 1.7 mg/mL | Peptide concentration after 180 min (MeCN 25.5% w/w, pH 10.5, RT): >4.0 mg/mL | Peptide concentration after 24 h (MeCN 25.5% w/w, pH 10.5, RT): >4.0 mg/mL | Peptide concentration after 5 min [3]: >4.0 mg/mL | Peptide concentration after 180 min [3]: >4.0 mg/mL | Peptide concentration after 5 min (MeCN 25.5% w/w, pH 11.0, RT): 1.2 mg/mL | Peptide concentration after 180 min (MeCN 25.5% w/w, pH 11.0, RT): >4.0 mg/mL | Peptide concentration after 24 h (MeCN 25.5% w/w, pH 11.0, RT): >4.0 mg/mL | Peptide concentration after 5 min (MeCN 31.8% w/w, pH 3.0, 5° C.): 1.0 mg/mL | Peptide concentration after 180 min (MeCN 31.8% w/w, pH 3.0, 5° C.): 0.7 mg/mL
